The values below come from paper PMC4548232.

Sequences of proteins named here, by UniProt entry; tags and fusion partners are left off.
UniProt Q5NCY0: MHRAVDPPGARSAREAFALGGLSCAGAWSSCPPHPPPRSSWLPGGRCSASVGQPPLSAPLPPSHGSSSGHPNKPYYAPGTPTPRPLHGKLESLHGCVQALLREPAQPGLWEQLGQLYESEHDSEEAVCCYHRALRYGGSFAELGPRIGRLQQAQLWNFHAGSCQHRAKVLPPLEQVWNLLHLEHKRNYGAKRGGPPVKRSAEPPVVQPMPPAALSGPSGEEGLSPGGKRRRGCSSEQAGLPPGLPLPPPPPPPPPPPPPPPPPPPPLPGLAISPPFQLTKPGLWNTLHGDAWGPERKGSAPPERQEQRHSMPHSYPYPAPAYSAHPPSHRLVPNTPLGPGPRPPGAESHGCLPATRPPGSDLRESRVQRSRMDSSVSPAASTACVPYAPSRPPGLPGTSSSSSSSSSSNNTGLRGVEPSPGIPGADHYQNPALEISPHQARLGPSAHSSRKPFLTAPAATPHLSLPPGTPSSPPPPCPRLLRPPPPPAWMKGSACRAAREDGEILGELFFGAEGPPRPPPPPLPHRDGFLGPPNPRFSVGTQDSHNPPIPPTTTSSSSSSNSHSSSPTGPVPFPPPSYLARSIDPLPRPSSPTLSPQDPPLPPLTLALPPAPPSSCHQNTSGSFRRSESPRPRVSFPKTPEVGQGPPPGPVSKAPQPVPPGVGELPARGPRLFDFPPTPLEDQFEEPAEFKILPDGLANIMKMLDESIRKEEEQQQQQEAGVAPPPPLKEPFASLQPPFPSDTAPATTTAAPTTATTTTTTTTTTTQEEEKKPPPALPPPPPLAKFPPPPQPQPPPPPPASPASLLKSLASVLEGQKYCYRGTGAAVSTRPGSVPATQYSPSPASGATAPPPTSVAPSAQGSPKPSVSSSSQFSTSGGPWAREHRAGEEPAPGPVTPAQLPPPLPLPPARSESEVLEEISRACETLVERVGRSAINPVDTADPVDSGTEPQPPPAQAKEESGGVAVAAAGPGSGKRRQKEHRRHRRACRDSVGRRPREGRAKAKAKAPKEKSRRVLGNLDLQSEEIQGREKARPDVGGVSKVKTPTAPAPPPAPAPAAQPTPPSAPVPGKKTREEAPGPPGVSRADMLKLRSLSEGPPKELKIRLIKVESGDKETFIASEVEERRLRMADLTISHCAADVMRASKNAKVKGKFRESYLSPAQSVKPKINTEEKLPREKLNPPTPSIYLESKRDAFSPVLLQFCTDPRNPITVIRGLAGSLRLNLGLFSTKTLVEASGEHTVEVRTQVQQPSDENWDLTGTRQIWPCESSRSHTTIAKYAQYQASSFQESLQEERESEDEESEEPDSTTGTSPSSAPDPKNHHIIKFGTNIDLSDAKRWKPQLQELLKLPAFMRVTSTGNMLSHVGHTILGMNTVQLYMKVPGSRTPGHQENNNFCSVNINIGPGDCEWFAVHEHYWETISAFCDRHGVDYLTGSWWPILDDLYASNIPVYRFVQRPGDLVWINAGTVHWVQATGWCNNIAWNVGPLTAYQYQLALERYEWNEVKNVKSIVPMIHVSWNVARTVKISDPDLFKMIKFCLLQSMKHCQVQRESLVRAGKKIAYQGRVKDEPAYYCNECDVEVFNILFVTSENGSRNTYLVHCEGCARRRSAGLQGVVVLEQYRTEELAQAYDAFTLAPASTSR
UniProt Q08775: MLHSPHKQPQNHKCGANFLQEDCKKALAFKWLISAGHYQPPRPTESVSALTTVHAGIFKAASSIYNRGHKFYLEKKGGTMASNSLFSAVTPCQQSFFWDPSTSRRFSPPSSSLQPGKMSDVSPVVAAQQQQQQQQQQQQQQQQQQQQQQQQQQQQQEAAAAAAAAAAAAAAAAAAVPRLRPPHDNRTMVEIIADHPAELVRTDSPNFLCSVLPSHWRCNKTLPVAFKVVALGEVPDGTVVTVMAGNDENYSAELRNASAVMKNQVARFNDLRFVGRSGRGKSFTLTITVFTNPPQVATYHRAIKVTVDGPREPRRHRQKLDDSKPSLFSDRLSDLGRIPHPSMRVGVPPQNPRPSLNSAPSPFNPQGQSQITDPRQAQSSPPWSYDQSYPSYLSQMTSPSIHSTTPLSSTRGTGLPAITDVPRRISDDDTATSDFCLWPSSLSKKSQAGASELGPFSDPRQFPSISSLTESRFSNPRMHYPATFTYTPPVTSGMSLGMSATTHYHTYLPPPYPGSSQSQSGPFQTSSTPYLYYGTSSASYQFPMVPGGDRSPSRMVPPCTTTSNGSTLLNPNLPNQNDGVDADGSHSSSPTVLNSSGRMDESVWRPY

Results are given in words; binding and its absence hold for the method and conditions named. In cells and extracts the contact can be indirect. Some results given as binding are weak or reduced against the parent protein; the word gives no strength.

For the assay, the target named is JMJD3 (KDM6B) (mouse (endogenous in primary parietal osteoblasts of E18.5 embryos)) (UniProt Q5NCY0). Nature of the assay: co-IP; endogenous proteins; 5 mg lysate of primary parietal osteoblasts (E18.5 mouse embryos) incubated 2 hours with 3 ug anti-JMJD3 or anti-RUNX2 antibody, then overnight with protein A/G Plus agarose; Western blot with anti-JMJD3 and anti-RUNX2. In general terms: In western blotting, separated proteins are transferred to a membrane and probed.

For the substance RUNX2 (from UniProt Q08775 1-607), the binding entry is listed as “binds”.
